The values that follow come from publication PMC3335814, “Structure of an Enzyme-Derived Phosphoprotein Recognition Domain” (PLoS ONE, 2012).

This experiment deals with T1, Pins Linker peptide (residues 427-445), pSer436, TMR-labelled (Drosophila) (UniProt Q9VB22).
T1 sequence (peptide, phosphoserine at 436; tetramethylrhodamine (TMR) on the N-terminus): GRMVRVRRQSMEQLDLIKI
As to the kind of experiment: fluorescence polarisation; steady state anisotropy of 0.5 µM TMR-labelled Pins peptide (427-445) with increasing concentrations of Dlg constructs; 20 mM Tris pH 8, 100 mM NaCl, 1 mM DTT; nonlinear regression; both purified. On the technique in general: Fluorescence polarisation rises when a labelled molecule tumbles more slowly, as on binding a larger partner.

Results are given in words; binding and its absence hold for the method and conditions named. A result given as binding can be weak or reduced; the word gives no strength.

With “Dlg GK domain with Y824 mutated (Drosophila) (domain or fragment)”, the binding entry is given as “binds”.
